Reference: patent publication US9623000B2, “Compositions and methods for treating inflammatory disorders” (priority 2008, dated 2017)
At least one compound was matched to its structure with a doubt left.

System: croton oil induced ear edema
Experiment: Croton oil induced ear edema, 6 hours post sensitization (Example 2)
Assay type: in vivo, Mice/Balb/c
Settings: Hydrocortisone 55 and 200 μg/25 μl per ear, Betamethasone 1 and 4 μg/25 μl per ear (calculated ED50 and EDmax)
From the text: A study was undertaken in order to evaluate the effect of topical preparations of Hydrocortisone, Betamethasone and PEA at various concentrations (as single agents and in various combinations) on ear edema in mice. […] The difference in ear thickness of the intact ear was subtracted from the ear thickness of the inflamed ear. This value is defined as “ear swelling”.

For `C[C@H]1C[C@H]2[C@@H]3CCC4=CC(=O)C=C[C@]4(C)[C@@]3(F)[C@@H](O)C[C@]2(C)[C@@]1(O)C(=O)CO` [Betamethasone, betamethasone], the “activity compared to vehicle in reducing ear thickness / ear edema” value was “significant reduction in ear edema compared to vehicle in a dose related manner”.
